Reference: PubChem BioAssay AID1508587 (Peter MacCallum Cancer Centre, 2020)
Shown is one part, drawn at random, of about 1,600 reagents tested. 623 of them (39%) count as active. 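Calls are for each duplex; lactate ratios contain extreme outliers.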 Entries without a mark were called inactive. The numbers tell different reagents against one gene apart.

- Test: 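Follow-up of vemurafenib sensitisers scored by lactate made per cell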 (follow-up of hits)
- System: human WM266.4 melanoma cells with a BRAF V600 mutation
- Reagent: single siRNA against human genes, 25 nM
- Duration: 96 h
- Conditions: vemurafenib 300 nM (about IC25), given 48 h after transfection for 48 h
- Measurement: 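Per-cell lactate from absorbance divided by DAPI nucleus counts, compared with and without vemurafenib, relative to non-targeting siRNA, mean of 2 replicates; nuclear counts also give cell number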
- Direction: lactate per cell, drug vs no drug: higher = less drug-induced drop in lactate per cell; lactate per cell with vemurafenib: higher = more lactate per cell under drug; lactate per cell without drug: higher = more lactate per cell without drug; cell growth with vemurafenib and cell growth without drug: higher = more cell growth over 48 h
- Rule for the call: 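Enhancer call for any duplex whose drug versus no-drug per-cell lactate ratio is below 0.55 (2 SD beneath non-targeting average); genes confirmed when at least 2 of their 4 duplexes qualify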

| Target gene | siRNA no. | lactate per cell, drug vs no drug | lactate per cell with vemurafenib | lactate per cell without drug | cell growth with vemurafenib | cell growth without drug |
| --- | --- | --- | --- | --- | --- | --- |
| YIPF6 | 1 | 0.57 | 0.72 | 0.85 | 0.24 | 0.12 |
| YIPF6 | 2 | 0.73 | 1.12 | 1.03 | 0.39 | 0.62 |
| YIPF6 | 3 | 0.48 (active) | 0.54 | 0.76 | 0.88 | 0.99 |
| YIPF6 | 4 | 0.72 | 1.16 | 1.08 | 0.96 | 1.11 |
| CPA1 | 1 | 0.58 | 1.82 | 1.84 | 0.38 | 0.35 |
| CPA1 | 2 | 0.45 (active) | 1.09 | 1.42 | 0.4 | 0.36 |
| CPA1 | 3 | 0.53 (active) | 1 | 1.12 | 0.87 | 0.81 |
| CPA1 | 4 | 0.9 | 1.88 | 1.28 | 0.32 | 0.56 |
| ZFHX2 | 1 | 0.68 | 1.31 | 1.22 | 0.43 | 0.47 |
| ZFHX2 | 2 | 0.54 (active) | 0.9 | 1.07 | 0.57 | 0.57 |
| ZFHX2 | 3 | 0.4 (active) | 0.99 | 1.52 | 0.18 | 0.2 |
| ZFHX2 | 4 | 0.46 (active) | 0.72 | 0.98 | 0.83 | 0.54 |
| IMP4 | 1 | 0.06 (active) | -0.05 | 0.38 | -0.16 | 0.06 |
| IMP4 | 2 | 0.64 | 1.06 | 1.02 | 0.89 | 0.95 |
| IMP4 | 3 | 0.28 (active) | 0.66 | 1.6 | 0.36 | 0.03 |
| IMP4 | 4 | 1.18 | 1.62 | 0.88 | 0.37 | 0.3 |
| LZTS3 | 1 | 0.93 | 2.58 | 1.82 | 0.04 | 0.03 |
| LZTS3 | 2 | 0.68 | 0.96 | 0.92 | 1.11 | 1.13 |
| LZTS3 | 3 | 0.68 | 1.07 | 1.03 | 1.06 | 0.97 |
| LZTS3 | 4 | 0.72 | 1.1 | 1 | 0.89 | 0.85 |
| PHEX | 1 | 0.7 | 1.4 | 1.25 | 0.51 | 0.69 |
| PHEX | 2 | 0.45 (active) | 0.43 | 0.62 | 0.42 | 0.79 |
| PHEX | 3 | 0.62 | 2.15 | 2.27 | 0.25 | 0.22 |
| PHEX | 4 | 0.68 | 2.91 | 2.73 | 0.18 | 0.14 |
| PDPK1 | 1 | 0.48 (active) | 0.88 | 1.19 | 0.48 | 0.48 |
| PDPK1 | 2 | 0.6 | 0.84 | 0.88 | 0.52 | 0.67 |
| PDPK1 | 3 | 0.34 (active) | 0.42 | 0.78 | 0.32 | 0.59 |
| PDPK1 | 4 | 0.66 | 0.62 | 0.59 | 0.57 | 0.93 |
| FOLH1 | 1 | 0.58 | 2.86 | 2.89 | 0.11 | 0.09 |
| FOLH1 | 2 | 0.4 (active) | 1.2 | 1.78 | 0.36 | 0.35 |
| FOLH1 | 3 | 0.52 (active) | 0.68 | 0.77 | 0.41 | 0.52 |
| FOLH1 | 4 | 0.68 | 0.94 | 0.8 | 0.14 | 0.47 |
| TIMP4 | 1 | 0.43 (active) | 0.61 | 0.88 | 1.08 | 1.11 |
| TIMP4 | 2 | 0.62 | 1.27 | 1.29 | 0.53 | 0.7 |
| TIMP4 | 3 | 0.6 | 0.76 | 0.8 | 1.43 | 1.41 |
| TIMP4 | 4 | 0.7 | 0.82 | 0.73 | 0.46 | 0.65 |
| GOT1L1 | 1 | 0.48 (active) | 0.9 | 1.1 | 0.51 | 0.66 |
| GOT1L1 | 2 | 0.56 | 1.06 | 1.11 | 0.64 | 0.84 |
| GOT1L1 | 3 | 0.48 (active) | 0.8 | 0.99 | 1.17 | 1.02 |
| GOT1L1 | 4 | 0.46 (active) | 0.91 | 1.17 | 0.45 | 0.36 |
| TPR | 1 | 0.49 (active) | 0.76 | 1.1 | 0.6 | 0.67 |
| TPR | 2 | 0.53 (active) | 0.71 | 0.92 | 0.32 | 0.48 |
| TPR | 3 | 0.7 | 1.54 | 1.57 | 0.14 | 0.16 |
| TPR | 4 | 0.78 | 1.56 | 1.42 | 0.55 | 0.52 |
| SCHIP1 | 1 | 0.44 (active) | 2.54 | 4.81 | 0.4 | 0 |
| SCHIP1 | 2 | 0.5 (active) | 0.64 | 0.77 | 0.35 | 0.55 |
| SCHIP1 | 3 | 0.41 (active) | 0.82 | 1.31 | 0.23 | 0.16 |
| SCHIP1 | 4 | 0.62 | 1.04 | 1.04 | 0.72 | 0.84 |
| TBL1Y | 1 | 0.78 | 0.83 | 0.7 | 0.32 | 0.74 |
| TBL1Y | 2 | 0.71 | 2.02 | 1.9 | 0.26 | 0.27 |
| TBL1Y | 3 | 0.52 (active) | 1.23 | 1.58 | 0.07 | 0.14 |
| TBL1Y | 4 | 0.82 | 1.99 | 1.6 | 0.08 | 0.21 |
